Experimental data reported in the supplement of paper PMC9588766.
± gives the standard deviation of the averaged measurements. The lowest values were mostly taken out for another list; the other results follow.

Tested on: PDC-DUC18828
Assay: cell viability relative to DMSO control (compound alone) (fraction); PDC-DUC18828 is a patient-derived cholangiocarcinoma cell line; higher = less growth inhibition
Conditions: 1 µM; 72 h
Protocol: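 Selleck Bioactive library screen in the patient-derived FGFR2-G3BP2 fusion-positive ICC cell line PDC-DUC18828 (500 cells/well). Each compound was tested at 1 uM alone, in triplicate, for 72 h. Viability was read by CellTiter-Glo and normalised to plate DMSO controls.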

Row | Structure (SMILES) | cell viability
1 | Cc1ccc(C(=O)NCCCCCC(=O)Nc2ccccc2N)cc1 | 1.07 ± 0.066
2 | Cc1nc2c(-c3cnc(N)nc3)nc(N3CCOCC3)nc2n1C(C)C | 0.274 ± 0.0054
3 | CN1C2CCC1CC(OC(=O)C(O)c1ccccc1)C2 (centres undefined) [Homatropine Bromide] | 1.04 ± 0.041
4 | Cc1ccccc1-n1c(Cn2nc(-c3cccc(O)c3)c3c(N)ncnc32)nc2cccc(C)c2c1=O | 1.02 ± 0.051
